Screen size: about 350,000 compounds; about 6,000 (1.7%) were called active. This list was built around the results that the source calls inconclusive (neither active nor inactive); the mix of calls is not that of the screen. Rule as the data show it: active = CPE inhibition above about 20% (passing the limit was not always enough); inconclusive = no clear call, values can overlap the other calls; tested in BHK-21 cells. The source holds several records for some structures; these can differ, active in one and inactive in another.
Test: protection of cells from dengue 2 killing – plate reader, single concentration, primary screen (AID 651640);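 also: 0% = median of neutral control wells and 100% = median of positive control wells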
Conditions: DENV2-infected cells, cytopathic effect rescue, at 9.99 µM, active compounds read high

For `COc1cc(OC)c2c(c1C(CCN1CCOCC1)c1ccc(N(C)C)cc1)OC(=O)CC2c1ccc(N(C)C)cc1` (configuration not stated), which CPE inhibition is on record?
Its CPE inhibition is inactive: 4.37%.

With `Cc1cccc(NC(=S)N/N=C/c2cccc(O)c2)c1C` as the molecule, how does the CPE inhibition read?
The CPE inhibition was inactive: 1.32%.

With `CO[C@H]1CN(C)C(=O)c2cc(NC(=O)c3ccccc3)ccc2OC[C@@H](C)N(C)C[C@H]1C` as the molecule, how does the CPE inhibition read?
The CPE inhibition was inactive: 3.86%.

For `C[C@H]1CN([C@@H](C)CO)C(=O)c2cc(Br)cnc2O[C@H]1CN(C)C(=O)c1ccccc1F`, which CPE inhibition is on record?
The CPE inhibition was inconclusive: 36%.

With `C#CCOCCOCCOCCNc1nc(N2CCN(C(=O)C(Cc3ccc(O)cc3)n3cc(C(N)C(C)CC)nn3)CC2)nc(N2CCN(C(=O)C(Cc3ccc(O)cc3)n3cc(C(N)C(C)CC)nn3)CC2)n1` (configuration not stated) as the molecule, how does the CPE inhibition read?
The CPE inhibition was inactive: 3.26%.

For `COC(=O)c1ccc(COC(=O)C2CCN(S(=O)(=O)c3ccc(C)c(C)c3)CC2)o1`, which CPE inhibition is on record?
The CPE inhibition was inconclusive: 39%.

For `COc1ccc(C(=O)Nc2nc(CC(=O)NCc3c(F)cccc3F)cs2)cc1`, which CPE inhibition is on record?
The CPE inhibition was inconclusive: 31.2%.

With `Oc1ccc(-c2c(-c3ccsc3)sc3ccccc23)cc1` as the molecule, how does the CPE inhibition read?
Its CPE inhibition is inconclusive: 50.9%.

With `CO[C@@H]1CC[C@H]2CCN(C)C(=O)C[C@H](c3ccccc3)CN(C)C(=O)c3cc(C#N)ccc3OC[C@@H]1O2` as the molecule, how does the CPE inhibition read?
The CPE inhibition was active: 51.7%.

Which CPE inhibition does the source give for `C/C=C/c1ccc([C@H]2[C@@H](CO)N(CCC)[C@H]2CNC(=O)CN2CCOCC2)cc1` here?
The CPE inhibition was inconclusive: 21.8%.

For `COc1ccccc1CNC(=O)C[C@H]1CC[C@H]2[C@@H](COC[C@@H](O)CN2C(=O)Nc2ccccc2)O1`, which CPE inhibition is on record?
Its CPE inhibition is inconclusive: 86.4%.

Which CPE inhibition does the source give for `C[C@@H]1CCCCO[C@@H](CN(C)C(=O)Nc2cccc3ccccc23)[C@@H](C)CN([C@H](C)CO)C(=O)c2cc(NS(=O)(=O)c3cccs3)ccc2O1` here?
Its CPE inhibition is inactive: -0.729%.

Which CPE inhibition does the source give for `C[C@H](CO)N1C[C@H](C)[C@H](CN(C)C(=O)Cc2ccccn2)Oc2cc(C#Cc3ccccc3)ccc2S1(=O)=O` here?
Its CPE inhibition is inconclusive: 22.2%.

With `C#CCOCCOCCOCCNc1nc(N2CCN(C(=O)[C@H]([C@@H](C)CC)n3cc(CCC(=O)O)nn3)CC2)nc(N2CCN(C(=O)[C@H](CCCCN)n3cc(CCCC)nn3)CC2)n1` as the molecule, how does the CPE inhibition read?
Its CPE inhibition is inconclusive: 63.8%.

For `C=CCC[C@H](Cc1ccc(F)cc1)C(=O)OC[C@@H](Cc1c[nH]c2ccccc12)NC(=O)[C@@H](CC=C)CC(=O)N[C@@H](CO)Cc1ccccc1`, which CPE inhibition is on record?
The CPE inhibition was inconclusive: 25.1%.

For `O=C(NC[C@@H]1N[C@@H](CO)[C@H]1c1ccc(-c2cccnc2)cc1)c1cccc(F)c1`, which CPE inhibition is on record?
Its CPE inhibition is active: 41.5%.

With `C[C@H](CO)N1C[C@H](C)[C@H](CN(C)C(=O)NC2CCCCC2)Oc2c(NS(=O)(=O)c3ccccc3)cccc2C1=O` as the molecule, how does the CPE inhibition read?
Its CPE inhibition is inactive: 5.46%.

Which CPE inhibition does the source give for `C[C@@H]1CN([C@H](C)CO)C(=O)c2cc(NC(=O)Cc3ccccc3)ccc2O[C@@H]1CN(C)C(=O)Nc1ccc(F)cc1` here?
Its CPE inhibition is inconclusive: 23%.

Which CPE inhibition does the source give for `C[C@H](O)C#Cc1ccc([C@H]2[C@@H](CO)N3CCCCN(C(=O)c4ccc5c(c4)OCO5)C[C@@H]23)cc1` here?
Its CPE inhibition is inconclusive: 36.8%.

Which CPE inhibition does the source give for `COc1ccc(CNC(=O)CCn2c(=O)oc3ccccc32)c(OC)c1` here?
The CPE inhibition was inactive: -2.49%.

With `COc1ccc(S(=O)(=O)N[C@H]2C=C[C@H](CC(=O)N3CCC(Cc4ccccc4)CC3)O[C@@H]2CO)cc1` as the molecule, how does the CPE inhibition read?
The CPE inhibition was inconclusive: 62.3%.

For `N#CCC(=O)Nc1cc(C(F)(F)F)ccc1N1CCOCC1`, which CPE inhibition is on record?
Its CPE inhibition is inactive: -7.7%.

With `CC(=O)N1CC[C@@H]2[C@@H](CO)N(C)c3ccc(-c4ccc(C#N)cc4)cc3[C@@H]21` as the molecule, how does the CPE inhibition read?
The CPE inhibition was inconclusive: 40%.

For `C/C(N)=C(/C#N)C(=O)CSc1cc(C)c2ccccc2n1`, which CPE inhibition is on record?
Its CPE inhibition is inactive: 5.87%.

With `Nc1nonc1-n1nnc(C(=O)N/N=C/c2ccc(OCc3ccccc3F)cc2)c1CN1CCCCC1` as the molecule, how does the CPE inhibition read?
Its CPE inhibition is inconclusive: 25.8%.

Which CPE inhibition does the source give for `CCCc1nn2c(=O)cc(CSCC(=O)Nc3ccc(F)cc3)nc2s1` here?
The CPE inhibition was inconclusive: 30.7%.

Which CPE inhibition does the source give for `CC(=O)N(C)C[C@H]1Oc2cc(C#Cc3cccnc3)ccc2S(=O)(=O)N([C@@H](C)CO)C[C@@H]1C` here?
The CPE inhibition was inactive: -7.26%.

With `CS(=O)(=O)c1ccc(Cl)c(NC(=O)C2CC(=O)N(Cc3ccco3)C2)c1` (configuration not stated) as the molecule, how does the CPE inhibition read?
Its CPE inhibition is inconclusive: 26.8%.

For `CC(C)C#Cc1cnc2c(c1)C(=O)N([C@@H](C)CO)C[C@H](C)[C@@H](CN(C)C(=O)Cc1ccccn1)O2`, which CPE inhibition is on record?
Its CPE inhibition is inconclusive: 64.1%.

For `O=S(=O)(c1cccc(C(F)(F)F)c1)N1CCN(CC(O)COCc2ccccc2)CC1` (configuration not stated), which CPE inhibition is on record?
The CPE inhibition was active: 62.9%.

For `C[C@@H]1CCCCO[C@H](CN(C)Cc2ccncc2)[C@@H](C)CN([C@@H](C)CO)C(=O)c2cc(NC(=O)NC3CCCCC3)ccc2O1`, which CPE inhibition is on record?
The CPE inhibition was active: 75.4%.

Which CPE inhibition does the source give for `COc1ccc(-c2oc(=O)c3cc(OC)c(OC)cc3c2/C=C/c2cccc([N+](=O)[O-])c2)cc1` here?
Its CPE inhibition is active: 33.7%.

Which CPE inhibition does the source give for `Cc1ccc(Cc2c(-c3ccc(Cl)cc3)nc3c(Cl)cc(C(F)(F)F)cn23)cc1` here?
The CPE inhibition was inactive: -4.23%.

Which CPE inhibition does the source give for `C[C@@H]1CN([C@@H](C)CO)C(=O)c2cc(C#CC3(O)CCCC3)cnc2O[C@H]1CN(C)C(=O)CC1CC1` here?
Its CPE inhibition is inactive: -5.55%.

Which CPE inhibition does the source give for `CN(C)CCCn1c2c(c(SCC(=O)Nc3ccc4c(c3)OCCO4)nc1=O)CCC2` here?
Its CPE inhibition is inconclusive: 36.8%.

With `O=C(Nc1ccncc1)Nc1ccc(Cl)cc1Cl` as the molecule, how does the CPE inhibition read?
The CPE inhibition was active: 71.4%.

For `COc1ccc(F)cc1S(=O)(=O)N1CCC2(CC1)OCCN2S(=O)(=O)c1cccs1`, which CPE inhibition is on record?
Its CPE inhibition is inconclusive: 54.6%.

Which CPE inhibition does the source give for `C[C@@H]1CN([C@@H](C)CO)C(=O)CCCn2cc(nn2)CO[C@H]1CN(C)C(=O)Nc1cccc(F)c1` here?
The CPE inhibition was active: 87.2%.

For `COc1ccc(S(=O)(=O)NC2CCCCCC2)c(OC)c1`, which CPE inhibition is on record?
Its CPE inhibition is inconclusive: 21.7%.

Which CPE inhibition does the source give for `COc1ccc(NC(=S)NCc2ccccc2)c(OC)c1` here?
Its CPE inhibition is inconclusive: 23.2%.

Which CPE inhibition does the source give for `O=C(NCCN1CCOCC1)c1ccc(NS(=O)(=O)c2cccc([N+](=O)[O-])c2)cc1` here?
Its CPE inhibition is inconclusive: 34%.

With `C=CCOC(=O)[C@H]1[C@@H]2C(=O)O[C@@H](c3ccccc3)[C@@H](c3ccccc3)N2[C@@H](c2ccc(OCCOC(=O)[C@H]3C[C@H]4C(=O)N[C@@H](CC(C)C)C(=O)N4[C@H]3c3cccc(OCCO)c3)cc2)[C@]12C(=O)Nc1ccccc12` as the molecule, how does the CPE inhibition read?
The CPE inhibition was inactive: -5.27%.

With `O=c1[nH]c(=O)n2c(c1-c1ccccc1)OC(CBr)C2` (configuration not stated) as the molecule, how does the CPE inhibition read?
The CPE inhibition was active: 75%.

With `O=S(=O)(c1ccccc1)N1CCCCN2[C@H](CO)[C@H](c3ccc(C#Cc4ccccn4)cc3)[C@H]2C1` as the molecule, how does the CPE inhibition read?
Its CPE inhibition is inconclusive: 43%.

With `CCOc1ccccc1C1C(C(=O)Nc2ccc(OC)cc2)=C(C)Nc2nc(CCCO)nn21` (configuration not stated) as the molecule, how does the CPE inhibition read?
Its CPE inhibition is inconclusive: 45.7%.

For `CCCNC(=O)[C@@]1(C)c2ccccc2C(=O)N(Cc2ccccc2)[C@H]1c1ccc(CO)cc1`, which CPE inhibition is on record?
Its CPE inhibition is inactive: 3.7%.

For `O=C(CSc1ccccc1F)NCC(c1ccco1)N1CCCCC1` (configuration not stated), which CPE inhibition is on record?
The CPE inhibition was inconclusive: 21.1%.

For `CO[C@H]1CN(C)C(=O)c2cc(NC(C)=O)ccc2OC[C@H](C)N(Cc2cncnc2)C[C@@H]1C`, which CPE inhibition is on record?
Its CPE inhibition is inactive: 3.11%.

Which CPE inhibition does the source give for `CCCCCCN1C[C@H](O)[C@@H](n2cc(-c3ccc(F)cc3)nn2)C[C@@H]1c1ccccc1` here?
Its CPE inhibition is inconclusive: 48.8%.

For `CC(C)NC(=O)Nc1ccc2c(c1)CC(=O)N([C@H](C)CO)C[C@@H](C)[C@H](CN(C)Cc1ccc(C(=O)O)cc1)O2`, which CPE inhibition is on record?
Its CPE inhibition is inconclusive: 22.2%.

For `C#CCOCCOCCOCCNc1nc(N2CCN(C(=O)[C@H](CCCN=C(N)N)n3cc(C(N)[C@@H](C)CC)nn3)CC2)nc(N2CCN(C(=O)[C@H](CC(N)=O)n3cc([C@@H](N)C(C)C)nn3)CC2)n1` (some centres not stated), which CPE inhibition is on record?
Its CPE inhibition is active: 36.5%.

With `Cc1noc(C)c1NC(=O)N(C)C[C@@H]1OCCCC[C@H](C)Oc2ccc(NS(=O)(=O)c3ccc(Cl)cc3)cc2C(=O)N([C@@H](C)CO)C[C@@H]1C` as the molecule, how does the CPE inhibition read?
The CPE inhibition was inconclusive: 23.4%.

With `O=C([C@@H]1[C@@H](CO)[C@@H]2Cn3c(cccc3=O)[C@H]1N2C(=O)c1ccccc1)N1CCCCC1` as the molecule, how does the CPE inhibition read?
The CPE inhibition was inactive: 4.27%.

Which CPE inhibition does the source give for `COc1ccc2c3c(n(C)c2c1)[C@H](CO)N(C(C)=O)CC31CN(C(=O)Nc2ccccc2F)C1` here?
The CPE inhibition was inactive: -5.94%.

For `O=C(NCc1ccncc1)C(=O)NCC1OCCN1S(=O)(=O)c1ccc(Cl)cc1` (configuration not stated), which CPE inhibition is on record?
Its CPE inhibition is inconclusive: 26.1%.

For `Brc1ccc(OCc2nnc(SCC3CCCCC3)o2)cc1`, which CPE inhibition is on record?
Its CPE inhibition is active: 28.9%.

With `O=C(CCCn1c(=S)[nH]c2ccsc2c1=O)NCCc1ccccc1` as the molecule, how does the CPE inhibition read?
The CPE inhibition was inactive: 5.95%.

With `C[C@@H]1CN([C@@H](C)CO)C(=O)c2cc(NC(=O)Nc3cccc4ccccc34)ccc2O[C@@H](C)CCCCO[C@@H]1CN(C)S(=O)(=O)c1ccccc1` as the molecule, how does the CPE inhibition read?
The CPE inhibition was inconclusive: 33.7%.

Which CPE inhibition does the source give for `COc1ccccc1CN1[C@H](CO)[C@@H](c2ccccc2)C12CN(C(=O)c1ccccn1)C2` here?
The CPE inhibition was active: 88.6%.

For `CC(C)(C)NS(=O)(=O)c1ccc(CCC(=O)N2CCCC2)cc1`, which CPE inhibition is on record?
The CPE inhibition was inconclusive: 37%.

For `Cc1ccccc1S(=O)(=O)N(C)C[C@@H]1OCc2ccccc2-c2c(n(C)c3ccccc23)C(=O)N([C@H](C)CO)C[C@@H]1C`, which CPE inhibition is on record?
The CPE inhibition was inconclusive: 24%.

For `COc1cccc(CN(C)C(=O)c2cc(COc3ccc(-n4cncn4)cc3)on2)c1`, which CPE inhibition is on record?
Its CPE inhibition is inconclusive: 21.5%.

With `COc1ccccc1CN1CCCC(N2CCN(c3ccccc3OC)CC2)C1` (configuration not stated) as the molecule, how does the CPE inhibition read?
Its CPE inhibition is active: 29%.

Which CPE inhibition does the source give for `Cc1ccc(C)c(S(=O)(=O)N2CCN(C(=O)Cn3c(=O)cnc4ccccc43)CC2)c1` here?
Its CPE inhibition is inconclusive: 21.9%.

With `CCCNC(=O)[C@H]1[C@H](CO)[C@H]2Cn3c(ccc(C4=CCCC4)c3=O)[C@@H]1N2C(=O)CC1CC1` as the molecule, how does the CPE inhibition read?
The CPE inhibition was inconclusive: 23.9%.

For `C[C@H]1CN([C@@H](C)CO)C(=O)Cc2cc(NC(=O)Nc3ccccc3)ccc2O[C@H]1CN(C)CC1CC1`, which CPE inhibition is on record?
The CPE inhibition was inactive: -1.67%.

With `Cc1nn(C(=O)c2nn(C)cc2Cl)c(C)c1Br` as the molecule, how does the CPE inhibition read?
Its CPE inhibition is inactive: 1.83%.
